Variants at the background level are over-represented here.
B1: tRNA (parent)
chain: GUUCCGUUGGCGUAAUGGUAACGCGUCUCCCUCCUAAGGAGAAGACUGCGGGUUCGAGUCCCGUACGGAACG

Variants of: B1
Assay: yeast fitness relative to wild type (ratio to wild type); higher = fitter; tRNA-Arg(CCU), competitive growth, 37 C, YPD
Procedure, shortened: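 For this measurement, the tRNA-Arg(CCU) gene was varied by chemical synthesis at a 3% per-site mutation rate across 69 sites, and each variant was placed at the native genomic locus in Saccharomyces cerevisiae. The pooled strains went through a 24-hour competition in YPD at 37°C in six parallel replicates, with amplicons from start and end populations read by 100-nucleotide paired-end sequencing. Darwinian fitness relative to wild type followed from the change in each genotype's frequency. Genotypes needed ≥ 100 starting reads, and estimates < 0.5 were set to 0.5.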

Variant	yeast fitness
GUUCCGUUGGCGUAAUGGUAACGCGUCUCCAUUCUAAGGAGAAGACUCCGGGUUCGUGUCCCGUACGGAACG [C31A C33U G48C A57U]	≤ 0.5
GUUCCGUUGGCGUAAUGGUAACGCGUCUCCAUCGUAAGGAGAAGACUGCGGGUUGGUGUCCUGUACGGAACG [C31A C34G C55G A57U C62U]	≤ 0.5
GUUCCGUUGGCGUAAUGGUAACGCGUCUCCAUCCUAAGGAGAAGACUGCGGGUUCGAGUCCCGUAGGGAACG [C31A C66G]	0.615
GUUCCGUUGGCGUAAUGGUAACGCGUCUCCAUCCUAAGGAGAAGACUGCGGGUUCCAAUCCCCUUCGGAACG [C31A G56C G58A G63C A65U]	≤ 0.5
GUUCCGUUGGCGUAAUGGUAACGCGUCUCCGUCCUCAGGAGAAGACUGCGGGUUCGAGUCCCGUACGAACCG [C31G A36C G68A A70C]	≤ 0.5
GUUCCGUUGGCGUAAUGGUAACGCGUCUCCGUCCUAAGGAGAAGCCUGCGGGUUCGAGUACCGUACGGAACG [C31G A45C C60A]	≤ 0.5
GUUCCGUUGGCGUAAUGGUAACGCGUCUCCGUCGUAAGGUGAAGACUGCGGGUUCGAGUCCCGUACGGAACG [C31G C34G A40U]	≤ 0.5
GUUCCGUUGGCGUAAUGGUAACGCGUCUCCGUCGUAAGGAGAUGACUGCGGGUUCGAGUCCCGUACGGAACG [C31G C34G A43U]	≤ 0.5
GUUCCGUUGGCGUAAUGGUAACGCGUCUCCGUCUUAAGGCGAAGACUGCGGGUUCGAGUCCCGUACUGAACG [C31G C34U A40C G67U]	≤ 0.5
GUUCCGUUGGCGUAAUGGUAACGCGUCUCCGUCCUAAGGAGAAGAGUGCGGGUUCGCGUCCCGUACGGAACG [C31G C46G A57C]	≤ 0.5
GUUCCGUUGGCGUAAUGGUAACGCGUCUCCGUCCUAAGGAGAAGACUGGGGGUUCGAGUCCCGUACGGACCG [C31G C49G A70C]	≤ 0.5
GUUCCGUUGGCGUAAUGGUAACGCGUCUCCGUCCUAAAGAGAAGACUGCGGGUUCGAGUCACAUACGGAACG [C31G G38A C61A G63A]	≤ 0.5
GUUCCGUUGGCGUAAUGGUAACGCGUCUCCGUCCUAAGGAGAAAACUGCGCGUCCGAGUCCCGUACGGCACG [C31G G44A G51C U54C A69C]	≤ 0.5
GUUCCGUUGGCGUAAUGGUAACGCGUCUCCGUCCUAAGGAGAAGACUACGGGUCCGAGUCCCGUACGGAACG [C31G G48A U54C]	≤ 0.5
GUUCCGUUGGCGUAAUGGUAACGCGUCUCCGUCCUAAGGAGAAGACCGCGGGUUCGAGUCCCGUACGGAACG [C31G U47C]	0.952
GUUCCGUUGGCGUAAUGGUAACGCGUCUCCUUCCUUAGGAGACGACUGCGGGUUGGAGUCCCGUACGAAACG [C31U A36U A43C C55G G68A]	≤ 0.5
GUUCCGUUGGCGUAAUGGUAACGCGUCUCCUUCCUAGGGAGAAGACUGCGGGUUCGAGUCACGUACGGAACG [C31U A37G C61A]	≤ 0.5
GUUCCGUUGGCGUAAUGGUAACGCGUCUCCUUCCUAGGGAGAAGACCGCGGGUUCGAGUCCCAUACGGAACG [C31U A37G U47C G63A]	≤ 0.5
GUUCCGUUGGCGUAAUGGUAACGCGUCUCCUUCAUAUCGAGAAGACUGCGGGUUCGAGUUACGUACGGCACG [C31U C34A A37U G38C C60U C61A A69C]	≤ 0.5

Variant	yeast fitness
GUUCCGUUGGCGUAAUGGUAACGCGUCUCCUUCAUAAGGAGAAGACUGAGGGUUCGAGUCCCUUACAGAACG [C31U C34A C49A G63U G67A]	≤ 0.5
GUUCCGUUGGCGUAAUGGUAACGCGUCUCCUUCCUAAGGAGAAGACUGCGGGUUCGAGUUCCGCACGGAACG [C31U C60U U64C]	0.695
GUUCCGUUGGCGUAAUGGUAACGCGUCUCCUUCCUAAGGAGAAGACUGCGGGUUCGAGUCCCGUAAGCAACG [C31U C66A G68C]	≤ 0.5
GUUCCGUUGGCGUAAUGGUAACGCGUCUCCUUCCUAAGAAGAAAACUGCGGGUUCGAGUCACGUACGGAACG [C31U G39A G44A C61A]	≤ 0.5
GUUCCGUUGGCGUAAUGGUAACGCGUCUCCUUCCUAAGAAGAAAACUGCGGGUUCGAGUCUCGUACGCAACG [C31U G39A G44A C61U G68C]	≤ 0.5
GUUCCGUUGGCGUAAUGGUAACGCGUCUCCUUCCUAAGGAGAAGACUGCGGGUUCGACGCGCGUACGGAACG [C31U G58C U59G C61G]	≤ 0.5
GUUCCGUUGGCGUAAUGGUAACGCGUCUCCUGGCUAAGGAGAAGACUGCGGGUUCGACUCCCGUACGGAACG [C31U U32G C33G G58C]	≤ 0.5
GUUCCGUUGGCGUAAUGGUAACGCGUCUCCUUCCUAAGGAGAAGACGGCGGGUUCGAGUCCCAUACGGAACG [C31U U47G G63A]	≤ 0.5
GUUCCGUUGGCGUAAUGGUAACGCGUCUCCUUCCUAAGGAGAAGACUGCGGGCUCGAGUCCCGUACGGAACG [C31U U53C]	0.633
GUUCCGUUGGCGUAAUGGUAACGCGUCUCCUUCCUAAGGAGAAGACUGCGGGUUCGAGCCCCGUACGGAACG [C31U U59C]	1.02
GUUCCGUUGGCGUAAUGGUAACGCGUCUCCCACCUUAGGAGAAGACUGCGGGUUCGAGUCCCGUACGGAGCG [U32A A36U A70G]	≤ 0.5
GUUCCGUUGGCGUAAUGGUAACGCGUCUCCCACCUAAGGAGAAGACUGCGGGUUCGUGUCCCGUACGGUACG [U32A A57U A69U]	≤ 0.5
GUUCCGUUGGCGUAAUGGUAACGCGUCUCCCACAUAAGGAGAAGACUGCGGGCUCGAGUCCCGAACGGAACG [U32A C34A U53C U64A]	≤ 0.5
GUUCCGUUGGCGUAAUGGUAACGCGUCUCCCCCCUAUGGAGAAGACUGCGGAUUCGAGUCCCGUACGGAACG [U32C A37U G52A]	≤ 0.5
GUUCCGUUGGCGUAAUGGUAACGCGUCUCCCCCCUAAGGGGAAGACUGCGGCUUCGAGUCCCGUACGGAACG [U32C A40G G52C]	≤ 0.5
GUUCCGUUGGCGUAAUGGUAACGCGUCUCCCCCCUAAGGAGACGACUGCGGGUUCGAGUCCCGUACGGAACG [U32C A43C]	0.83
GUUCCGUUGGCGUAAUGGUAACGCGUCUCCCCACUAAGGAGAAGACUGCGGGUUCGAGUCCCGUACGGAACG [U32C C33A]	0.628
GUUCCGUUGGCGUAAUGGUAACGCGUCUCCCCACUAAGGAGAAGACUGCGCGUUCGAGUCCCGUACGAAACG [U32C C33A G51C G68A]	≤ 0.5

From the RNAGym collection of RNA variant scans (doi:10.1126/science.aae0568)
